Substitutions are numbered along the chain they refer to. These are yes or no findings as the source states them, for the method shown. In cells and extracts the contact can be indirect. Some binding calls cover weakened binding; strength is not graded here. For part of these data: Where a sequence is shown, tags or fusion partners need not be part of it.

2 molecules from paper PMC5069480 can be followed below.

The target in test [1] is T1, full-length HA-tagged rat SynCAM1 (rat) (UniProt Q6AYP5).
T1 sequence: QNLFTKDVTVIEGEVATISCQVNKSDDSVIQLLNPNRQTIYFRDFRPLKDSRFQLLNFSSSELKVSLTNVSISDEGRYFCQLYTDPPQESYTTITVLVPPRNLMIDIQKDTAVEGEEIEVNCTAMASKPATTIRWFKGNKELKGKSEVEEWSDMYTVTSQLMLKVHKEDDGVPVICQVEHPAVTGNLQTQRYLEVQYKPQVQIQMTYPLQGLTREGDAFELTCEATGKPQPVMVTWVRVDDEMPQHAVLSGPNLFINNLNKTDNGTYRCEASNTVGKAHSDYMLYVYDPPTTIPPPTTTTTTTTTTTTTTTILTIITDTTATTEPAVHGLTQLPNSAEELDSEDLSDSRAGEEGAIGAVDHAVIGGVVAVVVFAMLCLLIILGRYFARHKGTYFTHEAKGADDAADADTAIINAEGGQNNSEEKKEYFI
Put plainly: co-IP; tagged recombinant proteins coexpressed in COS7 cells; lysis in 50 mM Tris pH 7.4, 100 mM NaCl, 1 mM EDTA, 1% Triton-X or 0.1% NP-40; IP with anti-MYC, anti-HA or anti-PSD-95 antibody (mouse IgG as control), protein-G-agarose, 4 °C; western blot. (In general: A western blot detects proteins with antibodies after separation by electrophoresis.)

Test [2] addresses T2, MYC-tagged full-length mouse MPP2 (MAGUK p55 subfamily member 2) (mouse) (UniProt Q9WV34).
T2 sequence: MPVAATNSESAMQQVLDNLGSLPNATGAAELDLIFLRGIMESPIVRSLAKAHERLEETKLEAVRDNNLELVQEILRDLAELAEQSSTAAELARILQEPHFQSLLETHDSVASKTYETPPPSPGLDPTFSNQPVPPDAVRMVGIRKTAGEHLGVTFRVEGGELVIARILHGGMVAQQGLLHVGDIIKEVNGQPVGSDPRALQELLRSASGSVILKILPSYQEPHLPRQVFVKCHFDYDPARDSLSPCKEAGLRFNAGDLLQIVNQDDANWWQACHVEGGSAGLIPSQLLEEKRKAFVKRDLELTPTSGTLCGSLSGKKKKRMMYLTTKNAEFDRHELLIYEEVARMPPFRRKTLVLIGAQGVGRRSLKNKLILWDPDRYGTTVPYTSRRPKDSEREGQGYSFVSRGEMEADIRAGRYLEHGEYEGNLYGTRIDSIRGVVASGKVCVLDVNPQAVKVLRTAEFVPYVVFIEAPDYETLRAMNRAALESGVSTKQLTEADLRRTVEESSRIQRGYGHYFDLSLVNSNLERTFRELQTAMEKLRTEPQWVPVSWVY
The test is described as above.

Test [3] has as its target T3, endogenous SynCAM1 from rat brain crude synaptosomes (rat (endogenous in rat brain)) (UniProt Q6AYP5).
T3 sequence: T1 sequence
Put plainly: co-IP; endogenous proteins from adult rat brain crude synaptosomes in 50 mM Tris pH 7.4, 100 mM NaCl, 1 mM EDTA, 1% Triton-X; IP with mouse anti-Stargazin/TARPγ2 or rabbit anti-MPP2 and protein-G-agarose, or chicken anti-SynCAM-Biotin and streptavidin Dynabeads; IgG or IgY controls; western blot.

B1: MYC-tagged full-length mouse MPP2 (MAGUK p55 subfamily member 2) (protein, UniProt Q9WV34-1 1-552)
chain: T2 sequence
Consider B1, for which the binding entry in test [1] and in test [2] was “binds” in each case.

B2: endogenous MPP2 from rat brain crude synaptosomes (protein, UniProt D3ZAA9 1-552)
chain: T2 sequence with S244I, Y473F
Take B2: the binding result in test [3] was “binds”.
